From publication doi:10.1101/2024.05.20.594848
No constants are given. Whether binding was seen depends on the method and setting. For part of these data: Binding seen in cells or lysates may run through a third protein. Some results given as binding are weak or reduced against the parent protein; the word gives no strength. For part of these data: Where a sequence is shown, tags or fusion partners need not be part of it.

Sequences of proteins named here, by UniProt entry; tags and fusion partners are left off. Residues count along the entry.
UniProt Q91ZX7, residues 20-4545: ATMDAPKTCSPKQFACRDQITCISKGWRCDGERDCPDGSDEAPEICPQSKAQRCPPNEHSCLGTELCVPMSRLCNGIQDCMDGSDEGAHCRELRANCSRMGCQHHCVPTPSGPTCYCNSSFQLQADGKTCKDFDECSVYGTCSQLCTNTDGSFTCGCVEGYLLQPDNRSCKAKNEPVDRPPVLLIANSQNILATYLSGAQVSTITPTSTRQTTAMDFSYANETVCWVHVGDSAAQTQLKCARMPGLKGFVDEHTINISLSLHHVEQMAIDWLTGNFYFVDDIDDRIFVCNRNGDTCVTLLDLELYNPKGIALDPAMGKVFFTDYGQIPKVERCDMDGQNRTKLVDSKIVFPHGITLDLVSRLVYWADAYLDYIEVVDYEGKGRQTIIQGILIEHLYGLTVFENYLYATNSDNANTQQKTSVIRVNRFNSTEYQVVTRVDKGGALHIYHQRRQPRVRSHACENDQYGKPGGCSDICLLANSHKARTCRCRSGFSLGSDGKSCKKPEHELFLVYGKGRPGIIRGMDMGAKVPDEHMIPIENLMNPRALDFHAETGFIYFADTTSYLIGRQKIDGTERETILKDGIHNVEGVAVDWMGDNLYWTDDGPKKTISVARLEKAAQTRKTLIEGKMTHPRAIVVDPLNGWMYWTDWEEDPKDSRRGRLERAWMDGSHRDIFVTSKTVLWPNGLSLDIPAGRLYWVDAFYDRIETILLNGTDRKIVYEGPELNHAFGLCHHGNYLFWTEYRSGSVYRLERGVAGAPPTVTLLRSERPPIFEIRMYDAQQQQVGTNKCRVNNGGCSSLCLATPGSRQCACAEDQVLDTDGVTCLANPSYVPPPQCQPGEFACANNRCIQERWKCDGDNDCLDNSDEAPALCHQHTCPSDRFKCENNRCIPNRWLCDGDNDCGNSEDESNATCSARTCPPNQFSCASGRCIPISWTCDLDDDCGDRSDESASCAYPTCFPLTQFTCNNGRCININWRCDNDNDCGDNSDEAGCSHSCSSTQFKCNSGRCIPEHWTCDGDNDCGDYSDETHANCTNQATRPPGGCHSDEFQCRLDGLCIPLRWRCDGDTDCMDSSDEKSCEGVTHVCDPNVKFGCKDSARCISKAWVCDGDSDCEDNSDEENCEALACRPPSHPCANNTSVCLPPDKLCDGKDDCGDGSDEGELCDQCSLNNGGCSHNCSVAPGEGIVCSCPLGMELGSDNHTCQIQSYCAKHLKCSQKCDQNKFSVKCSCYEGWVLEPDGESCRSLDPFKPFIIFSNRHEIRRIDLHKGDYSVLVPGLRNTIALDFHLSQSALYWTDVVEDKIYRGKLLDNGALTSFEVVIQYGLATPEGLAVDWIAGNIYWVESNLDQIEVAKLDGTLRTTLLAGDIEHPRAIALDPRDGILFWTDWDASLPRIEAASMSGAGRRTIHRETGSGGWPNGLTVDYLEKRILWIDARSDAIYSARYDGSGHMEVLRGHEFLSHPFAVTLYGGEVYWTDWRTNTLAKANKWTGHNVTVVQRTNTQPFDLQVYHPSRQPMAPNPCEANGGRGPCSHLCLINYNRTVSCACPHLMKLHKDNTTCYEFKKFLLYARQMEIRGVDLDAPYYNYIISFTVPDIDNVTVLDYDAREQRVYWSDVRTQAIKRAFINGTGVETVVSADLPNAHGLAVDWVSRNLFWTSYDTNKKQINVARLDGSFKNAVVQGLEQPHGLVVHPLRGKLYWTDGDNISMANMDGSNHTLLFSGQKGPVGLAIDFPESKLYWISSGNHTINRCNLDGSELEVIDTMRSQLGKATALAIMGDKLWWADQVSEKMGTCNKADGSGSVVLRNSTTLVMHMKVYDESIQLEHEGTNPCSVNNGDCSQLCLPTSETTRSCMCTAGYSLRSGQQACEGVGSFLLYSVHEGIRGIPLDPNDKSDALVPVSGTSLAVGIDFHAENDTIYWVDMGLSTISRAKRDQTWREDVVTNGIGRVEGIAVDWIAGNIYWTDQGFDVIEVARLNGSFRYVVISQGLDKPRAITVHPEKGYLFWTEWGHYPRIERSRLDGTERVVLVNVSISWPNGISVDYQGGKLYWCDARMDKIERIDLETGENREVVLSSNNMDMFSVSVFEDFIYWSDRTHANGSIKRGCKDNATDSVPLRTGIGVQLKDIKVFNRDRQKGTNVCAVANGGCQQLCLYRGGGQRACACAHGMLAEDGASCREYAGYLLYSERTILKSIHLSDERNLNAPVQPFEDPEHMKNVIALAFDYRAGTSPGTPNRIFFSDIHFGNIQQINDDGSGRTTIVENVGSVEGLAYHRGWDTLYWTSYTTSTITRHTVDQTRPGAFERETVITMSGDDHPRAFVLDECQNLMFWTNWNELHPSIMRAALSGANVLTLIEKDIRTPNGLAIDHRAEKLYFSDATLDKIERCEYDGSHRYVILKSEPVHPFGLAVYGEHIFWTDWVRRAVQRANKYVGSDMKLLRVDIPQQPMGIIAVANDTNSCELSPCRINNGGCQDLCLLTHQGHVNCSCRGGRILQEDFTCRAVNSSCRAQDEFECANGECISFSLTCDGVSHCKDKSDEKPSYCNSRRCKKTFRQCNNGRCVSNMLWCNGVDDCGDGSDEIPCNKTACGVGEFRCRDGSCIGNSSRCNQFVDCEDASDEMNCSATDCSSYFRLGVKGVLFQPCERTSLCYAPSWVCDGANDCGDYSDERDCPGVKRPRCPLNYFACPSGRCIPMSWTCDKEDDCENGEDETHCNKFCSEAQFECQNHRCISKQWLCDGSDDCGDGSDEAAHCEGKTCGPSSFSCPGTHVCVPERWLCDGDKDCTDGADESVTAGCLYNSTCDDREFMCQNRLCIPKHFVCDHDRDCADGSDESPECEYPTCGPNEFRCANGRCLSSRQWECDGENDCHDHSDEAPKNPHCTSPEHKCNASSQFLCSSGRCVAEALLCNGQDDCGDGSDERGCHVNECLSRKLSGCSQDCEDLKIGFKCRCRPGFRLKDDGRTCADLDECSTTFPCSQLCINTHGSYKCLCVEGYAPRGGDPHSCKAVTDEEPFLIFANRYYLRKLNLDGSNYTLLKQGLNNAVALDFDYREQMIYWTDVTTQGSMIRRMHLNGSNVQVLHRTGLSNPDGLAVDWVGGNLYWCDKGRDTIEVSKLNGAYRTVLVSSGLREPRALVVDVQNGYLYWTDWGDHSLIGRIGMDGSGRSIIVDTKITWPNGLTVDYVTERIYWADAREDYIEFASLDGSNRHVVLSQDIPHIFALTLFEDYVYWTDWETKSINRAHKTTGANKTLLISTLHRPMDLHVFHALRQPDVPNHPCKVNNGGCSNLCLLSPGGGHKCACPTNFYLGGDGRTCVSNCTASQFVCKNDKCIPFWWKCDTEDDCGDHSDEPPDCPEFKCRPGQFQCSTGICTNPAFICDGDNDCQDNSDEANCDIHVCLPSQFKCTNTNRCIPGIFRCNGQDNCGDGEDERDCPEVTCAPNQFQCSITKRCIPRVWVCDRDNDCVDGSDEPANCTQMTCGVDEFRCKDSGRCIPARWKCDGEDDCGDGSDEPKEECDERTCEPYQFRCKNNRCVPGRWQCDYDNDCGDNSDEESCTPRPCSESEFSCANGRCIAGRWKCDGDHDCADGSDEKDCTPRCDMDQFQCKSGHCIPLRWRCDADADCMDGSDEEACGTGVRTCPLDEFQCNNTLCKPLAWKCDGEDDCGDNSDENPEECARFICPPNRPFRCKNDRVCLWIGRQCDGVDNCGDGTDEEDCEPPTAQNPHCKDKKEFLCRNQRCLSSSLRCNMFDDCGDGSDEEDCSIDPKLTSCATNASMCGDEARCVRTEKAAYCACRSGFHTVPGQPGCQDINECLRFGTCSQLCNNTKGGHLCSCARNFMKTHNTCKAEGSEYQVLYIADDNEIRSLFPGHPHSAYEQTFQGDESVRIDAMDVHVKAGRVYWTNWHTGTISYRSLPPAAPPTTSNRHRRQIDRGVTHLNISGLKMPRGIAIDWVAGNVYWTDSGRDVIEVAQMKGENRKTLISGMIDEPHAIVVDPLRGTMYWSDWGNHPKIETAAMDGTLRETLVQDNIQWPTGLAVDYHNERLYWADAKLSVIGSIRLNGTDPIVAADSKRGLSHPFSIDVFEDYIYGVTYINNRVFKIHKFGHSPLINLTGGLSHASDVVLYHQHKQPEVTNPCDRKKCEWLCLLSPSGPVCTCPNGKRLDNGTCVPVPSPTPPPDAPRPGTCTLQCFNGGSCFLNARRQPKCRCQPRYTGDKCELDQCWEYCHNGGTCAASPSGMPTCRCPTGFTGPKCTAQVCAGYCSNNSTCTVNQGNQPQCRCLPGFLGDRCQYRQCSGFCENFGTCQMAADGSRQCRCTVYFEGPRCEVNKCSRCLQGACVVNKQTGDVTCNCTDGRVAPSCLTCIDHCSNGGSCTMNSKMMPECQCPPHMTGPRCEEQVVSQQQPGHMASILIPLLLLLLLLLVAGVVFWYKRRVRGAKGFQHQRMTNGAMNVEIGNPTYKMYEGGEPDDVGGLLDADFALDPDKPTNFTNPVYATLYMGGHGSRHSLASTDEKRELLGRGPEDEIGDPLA
UniProt P35441, residues 19-1170: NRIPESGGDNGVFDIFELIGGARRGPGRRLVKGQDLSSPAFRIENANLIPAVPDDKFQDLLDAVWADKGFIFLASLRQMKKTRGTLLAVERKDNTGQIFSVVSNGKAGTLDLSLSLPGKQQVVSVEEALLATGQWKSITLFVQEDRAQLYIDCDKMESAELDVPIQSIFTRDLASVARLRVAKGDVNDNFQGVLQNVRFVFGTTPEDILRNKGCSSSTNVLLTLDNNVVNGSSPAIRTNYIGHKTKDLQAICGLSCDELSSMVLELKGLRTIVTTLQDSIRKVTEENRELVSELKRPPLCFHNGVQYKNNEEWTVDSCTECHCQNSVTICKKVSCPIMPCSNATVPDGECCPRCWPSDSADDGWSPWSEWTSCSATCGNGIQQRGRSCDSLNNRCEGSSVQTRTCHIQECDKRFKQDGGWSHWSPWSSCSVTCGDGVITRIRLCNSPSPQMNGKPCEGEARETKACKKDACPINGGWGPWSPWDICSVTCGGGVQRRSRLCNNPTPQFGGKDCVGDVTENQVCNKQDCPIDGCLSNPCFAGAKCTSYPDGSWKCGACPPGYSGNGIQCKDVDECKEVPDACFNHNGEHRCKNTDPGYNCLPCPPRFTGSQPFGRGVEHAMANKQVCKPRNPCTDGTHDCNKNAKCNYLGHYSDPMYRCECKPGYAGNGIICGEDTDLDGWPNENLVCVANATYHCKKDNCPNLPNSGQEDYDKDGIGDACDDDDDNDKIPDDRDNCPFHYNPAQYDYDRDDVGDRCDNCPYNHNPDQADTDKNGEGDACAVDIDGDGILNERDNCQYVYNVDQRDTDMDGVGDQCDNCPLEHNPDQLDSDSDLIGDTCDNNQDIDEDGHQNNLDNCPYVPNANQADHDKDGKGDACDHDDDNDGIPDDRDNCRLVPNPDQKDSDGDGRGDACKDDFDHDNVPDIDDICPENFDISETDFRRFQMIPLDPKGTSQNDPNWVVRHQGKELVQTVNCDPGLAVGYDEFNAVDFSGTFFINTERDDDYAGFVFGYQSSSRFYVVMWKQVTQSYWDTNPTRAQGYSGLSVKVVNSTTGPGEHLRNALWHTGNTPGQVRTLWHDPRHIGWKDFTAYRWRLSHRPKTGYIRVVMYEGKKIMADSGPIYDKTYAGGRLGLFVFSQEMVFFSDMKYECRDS

T1: recombinant extracellular domain of mouse DCIR1 (mDCIR1-ECD), chemically biotinylated (mouse) (UniProt Q923C7)
T1 sequence (chain, biotin (chemical, EZ-Link Sulfo-NHS-LC-Biotin)): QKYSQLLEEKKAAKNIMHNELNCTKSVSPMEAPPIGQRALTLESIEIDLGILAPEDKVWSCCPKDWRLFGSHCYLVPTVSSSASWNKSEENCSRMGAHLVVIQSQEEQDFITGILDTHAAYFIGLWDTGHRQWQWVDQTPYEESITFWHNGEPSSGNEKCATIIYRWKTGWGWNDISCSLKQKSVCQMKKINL

B1: extracellular domain of human DCIR (hDCIR-ECD) with N-terminal Avi-tag, enzymatically biotinylated (domain or fragment, UniProt Q9UMR7-1 70-237)
chain: QKYSQLLEKKTTKELVHTTLECVKKNMPVEETAWSCCPKNWKSFSSNCYFISTESASWQDSEKDCARMEAHLLVINTQEEQDFIFQNLQEESAYFVGLSDPEGQRHWQWVDQTPYNESSTFWHPREPSDPNERCVVLNFRKSPKRWGWNDVNCLGPQRSVCEMMKIHL
modifications: biotin (enzymatic, BirA ligase)
B2: recombinant extracellular domain of mouse DCIR1 (mDCIR1-ECD) with N-terminal Avi-tag, enzymatically biotinylated (domain or fragment, UniProt Q9QZ15 70-238)
chain: QKYSQLLEEKKAAKNIMHNELNCTKSVSPMEDKVWSCCPKDWRLFGSHCYLVPTVSSSASWNKSEENCSRMGAHLVVIQSQEEQDFITGILDTHAAYFIGLWDTGHRQWQWVDQTPYEESITFWHNGEPSSGNEKCATIIYRWKTGWGWNDISCSLKQKSVCQMKKINL
modifications: biotin (enzymatic, BirA ligase)

Experiments:
[1] = molecular target: T1, recombinant extracellular domain of mouse DCIR1 (mDCIR1-ECD), chemically biotinylated (mouse); assay: pull-down
[2] = molecular target: mouse LRP1 on HoxB8-derived macrophages (mouse (endogenous in HoxB8-derived macrophages)) (UniProt Q91ZX7); assay: flow cytometry on cells

| Molecule | binding [1] | binding [2] |
| --- | --- | --- |
| Thrombospondin 1 (THBS1) (from UniProt P35441 19-1170) | binds weakly |  |
| B1 |  | binds |
| B2 |  | binds |
